Source: patent US9271932B2, “Fusogenic properties of saposin C and related proteins and peptides for application to transmembrane drug delivery systems” (CHILDREN'S HOSPITAL MEDICAL CENTER, priority 2006, dated 2016)
Residue numbers refer to the chain shown, from its start. Numbers in names are those of the source.

B1: Saposin C(S37W): saposin C with a Trp at residue 37 (in the middle) (protein, UniProt P07602 311-390, looked up, variant S37W)
Saposin-C: SDVYCEVCEFLVKEVTKLIDNNKTEKEILDAFDKMCWKLPKSLSEECQEVVDTYGSSILSILLEEVSPELVCSMLHLCSG
modifications: Saposin-C
B2: Saposin C + Phosphatidylserine (18:1, 1): saposin C complexed with acidic, unsaturated phosphatidylserine PS(18:1,1) liposomes (protein, UniProt P07602 311-390, looked up)
Saposin-C: B1 Saposin-C with W37S
modifications: Saposin-C complexed with phosphatidylserine liposomes
notes: saposin C complexed with acidic, unsaturated phosphatidylserine PS(18:1,1) liposomes
B3: Saposin B + Phosphatidylcholine (18:1, 1): saposin B complexed with neutral phosphatidylcholine (18:1,1) liposomes (protein, UniProt P07602 195-273, looked up)
Saposin-B: GDVCQDCIQMVTDIQTAVRTNSTFVQALVEHVKEECDRLGPGMADICKNYISQYSEIAIQMMMHMQPKEICALVGFCDE
modifications: Saposin-B complexed with phosphatidylcholine liposomes
notes: saposin B complexed with neutral phosphatidylcholine (18:1,1) liposomes
B4: Saposin A: Recombinant saposin A, prosaposin-derived sphingolipid activator protein (protein, UniProt P07602 60-142, looked up)
Saposin-A: SLPCDICKDVVTAAGDMLKDNATEEEILVYLEKTCDWLPKPNMSASCKEIVDSYLPVILDIIKGEMSRPGEVCSALNLCESLQ
modifications: Saposin-A
B5: Saposin B: Recombinant saposin B, prosaposin-derived sphingolipid activator protein expressed in E. coli (protein, UniProt P07602 195-273, looked up)
Saposin-B: B3 Saposin-B
modifications: Saposin-B
B6: Saposin B + Phosphatidylserine (18:1, 1): saposin B with phosphatidylserine (18:1,1) liposomes (protein, UniProt P07602 195-273, looked up)
Saposin-B: B3 Saposin-B
modifications: Saposin-B with phosphatidylserine liposomes
notes: saposin B with phosphatidylserine (18:1,1) liposomes
B7: Saposin A + Phosphatidylserine (18:1, 1): saposin A with phosphatidylserine (18:1,1) liposomes (protein, UniProt P07602 60-142, looked up)
Saposin-A: B4 Saposin-A
modifications: Saposin-A with phosphatidylserine liposomes
notes: saposin A with phosphatidylserine (18:1,1) liposomes
B8: Saposin C: Recombinant saposin C, prosaposin-derived fusogenic lysosomal protein, expressed in E. coli (His-tag) (protein, listed as Homo sapiens)
chain: B1 Saposin-C with W37S
modifications: His-tag
B9: Saposin C + Phosphatidylserine (18:0, 0): saposin C with saturated phosphatidylserine PS(18:0,0) liposomes (protein, UniProt P07602 311-390, looked up)
Saposin-C: B1 Saposin-C with W37S
modifications: Saposin-C with saturated phosphatidylserine liposomes
notes: saposin C with saturated phosphatidylserine PS(18:0,0) liposomes
B10: Saposin C + Phosphatidylcholine (18:1, 1): saposin C with neutral phosphatidylcholine (18:1,1) liposomes (protein, UniProt P07602 311-390, looked up)
Saposin-C: B1 Saposin-C with W37S
modifications: Saposin-C with phosphatidylcholine liposomes
notes: saposin C with neutral phosphatidylcholine (18:1,1) liposomes
B11: Saposin C(S37W, Q48A/E49A): Trp-labeled saposin C mutant S37W, Q48A/E49A (protein, UniProt P07602 311-390, looked up, variant S37W Q48A E49A)
Saposin-C: B1 Saposin-C with Q48A, E49A
modifications: Saposin-C
B12: Saposin A(37W): saposin A with Trp at residue 37; wild-type A contains a natural Trp (37W) (protein, UniProt P07602 60-142, looked up)
Saposin-A: B4 Saposin-A
modifications: Saposin-A
B13: Saposin A(37W, G64E): saposin A (37W) mutant G64E (protein, UniProt P07602 60-142, looked up, variant G64E)
Saposin-A: B4 Saposin-A with G64E
modifications: Saposin-A
notes: saposin A (37W) mutant G64E
B14: Saposin C(S37W, Q48N): Trp-labeled saposin C mutant S37W, Q48N (protein, UniProt P07602 311-390, looked up, variant S37W Q48N)
Saposin-C: B1 Saposin-C with Q48N
modifications: Saposin-C

Assay: Circular dichroism (195-250 nm) analyses of saposins with various phospholipids
Settings: not given
Excerpt: (§1) To determine the specificity of saposin C-phospholipid interaction, a liposomal system is developed using CD, fluorescence emission shifts, and fluorescence quenching methods. Mutated saposins C's, produced to contain individual Trp (W), are termed saposin C(0W), (S37W), and (81W). These Trp-labeled saposin C's are as follows: saposin C(0W) has a Trp preceding the first NH2-terminal amino acid of mature saposin C, saposin C(S37W) has a Trp at residue 37 (i.e., in the middle), and saposin C(81W) has a Trp after the last COOH-terminal amino acid. These substitutions had no effect on the activation properties or CD spectra of saposin C.
Using CD spectroscopy, relative secondary structural changes of recombinant saposins are induced by membrane binding.
No changes are observed with saposin A and B in the PS (18:1,1) complexes. […] The CD data are collected on a Jasco 710 instrument, and deconvoluted using Yang's method (see Chang, C. T., Wu, C. S., and Yang, J. T. Anal. Biochem (1978) 91, 13-31). b) Fluorescence Emission Spectra

| Molecule | effect of Trp substitutions on CD spectra of saposin C |
| --- | --- |
| B1 | no effect |

Same assay, conditions: CD 195-250 nm, deconvoluted by Yang's method

| Molecule | % α [%] | % β [%] |
| --- | --- | --- |
| B2 | 49.8 | 3.9 |
| B3 | 68.2 | 24.2 |
| B4 | 44.0 | 31.9 |
| B5 | 43.7 | 36.6 |
| B6 | 43.8 | 38.8 |
| B7 | 39.3 | 34.9 |
| B8 | 29.9 | 41.7 |
| B9 | 30.1 | 40.4 |
| B10 | 30.6 | 41.0 |

Same assay, conditions: CD spectroscopy

| Molecule | secondary structure changes in the PS (18:1,1) complexes |
| --- | --- |
| B4 | No changes |
| B5 | No changes |

Same assay, conditions: CD spectroscopy, lipid-bound vs lipid-free

| Molecule | relative secondary structural changes induced by membrane binding |
| --- | --- |
| B2 | decrease the β-strand and an increase the α-helix content |
| B3 | decrease the β-strand and an increase the α-helix content |

Assay: Fluorescence emission maxima of Trp-saposins in absence and presence of BPS liposomes
Type: binding
Settings: absence of BPS; pH 4.7
Excerpt: as §1
Emission spectra of proteins shift when the tryptophanyl environments change polarity.
Experiments conditions: pH 4.7, protein:lipid=1:20 to 40. No differences are observed at 22 or 37° C.

| Molecule | Emission Maxima (EM, nm) −BPS [nm] |
| --- | --- |
| B1 | 351 |
| B11 | 338 |
| B12 | 351 |
| B13 | 344 |
| B14 | 345 |

Same assay, conditions: presence of BPS; pH 4.7, protein:lipid=1:20 to 40

| Molecule | Emission Maxima (EM, nm) +BPS [nm] |
| --- | --- |
| B1 | 351 |
| B11 | 329 |
| B12 | 338 |
| B13 | 358 |
| B14 | 339 |
